The supplement of paper PMC4604168 (melanoma cell lines)
This is one part of the list. Repeats are few or missing, and single values can be far off.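 The apoptosis fraction was the count of cleaved-PARP antibody-stained nuclei relative to all DNA-stained nuclei, imaged in 1,536-well plates. Screening doses were set so most cells survived, and baseline and induced cleaved-PARP levels vary greatly across cell lines.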

Assays:
Test in all cases: cleaved PARP positive nuclei fraction relative to DMSO control; melanoma cells; higher = more apoptosis
Details in all cases: library dose: low library concentration; 72 h
MZ2-MEL = tested on: MZ2-MEL
MeWo = tested on: MeWo
RPMI7951 = tested on: RPMI7951
RVH-421 = tested on: RVH-421
SkMel28 = tested on: SkMel28
SkMel2 = tested on: SkMel2
SkMel30 = tested on: SkMel30
SkMel5 = tested on: SkMel5
UACC257 = tested on: UACC257
UACC62 = tested on: UACC62
WM115 = tested on: WM115
WM1716 = tested on: WM1716
WM1745 = tested on: WM1745
WM3526 = tested on: WM3526
WM3619 = tested on: WM3619
WM451Lu = tested on: WM451Lu

| SMILES | cleaved PARP positive nuclei fraction (MZ2-MEL) [%] | cleaved PARP positive nuclei fraction (MeWo) [%] | cleaved PARP positive nuclei fraction (RPMI7951) [%] | cleaved PARP positive nuclei fraction (RVH-421) [%] | cleaved PARP positive nuclei fraction (SkMel28) [%] | cleaved PARP positive nuclei fraction (SkMel2) [%] | cleaved PARP positive nuclei fraction (SkMel30) [%] | cleaved PARP positive nuclei fraction (SkMel5) [%] | cleaved PARP positive nuclei fraction (UACC257) [%] | cleaved PARP positive nuclei fraction (UACC62) [%] | cleaved PARP positive nuclei fraction (WM115) [%] | cleaved PARP positive nuclei fraction (WM1716) [%] | cleaved PARP positive nuclei fraction (WM1745) [%] | cleaved PARP positive nuclei fraction (WM3526) [%] | cleaved PARP positive nuclei fraction (WM3619) [%] | cleaved PARP positive nuclei fraction (WM451Lu) [%] |
| --- | --- | --- | --- | --- | --- | --- | --- | --- | --- | --- | --- | --- | --- | --- | --- | --- |
| CC(=O)O[C@@]12CO[C@@H]1C[C@H](O)[C@@]1(C)C(=O)[C@H](O)C3=C(C)[C@@H](OC(=O)[C@H](O)[C@@H](NC(=O)OC(C)(C)C)c4ccccc4)C[C@@](O)([C@@H](OC(=O)c4ccccc4)[C@H]21)C3(C)C [Docetaxel] + O=c1cc(-c2cccc3c2Sc2ccccc2S3)oc(N2CCOCC2)c1 [KU55933] (first compound 0.0001 µM, partner dose 1 µM) | 676 | 235 | 242 | 205 | 666 | 409 | 375 | 86.7 | 476 | 870 | 701 | 142 | 166 | 431 | 153 | 123 |
| CC1(C)CCC(c2ccc(Cl)cc2)=C(CN2CCN(c3ccc(C(=O)NS(=O)(=O)c4ccc(N[C@H](CCN5CCOCC5)CSc5ccccc5)c(S(=O)(=O)C(F)(F)F)c4)cc3)CC2)C1 + COc1ccc(-c2ccc3c(N4CCOCC4)nc(N4C[C@@H](C)O[C@@H](C)C4)nc3n2)cc1CO [KU0063794] (first compound 0.4 µM, partner dose 0.02 µM) | 281 | 321 | 176 | 62.4 | 70.3 | 157 | 43.6 | 284 | 123 | 152 | 117 | 254 | 1010 | 111 | 120 | 174 |
| CC(=O)O[C@@]12CO[C@@H]1C[C@H](O)[C@@]1(C)C(=O)[C@H](O)C3=C(C)[C@@H](OC(=O)[C@H](O)[C@@H](NC(=O)OC(C)(C)C)c4ccccc4)C[C@@](O)([C@@H](OC(=O)c4ccccc4)[C@H]21)C3(C)C [Docetaxel] + CO[C@@H]1[C@H](N(C)C(=O)c2ccccc2)C[C@H]2O[C@]1(C)n1c3ccccc3c3c4c(c5c6ccccc6n2c5c31)C(=O)NC4 [Midostaurin] (first compound 0.0001 µM, partner dose 0.08 µM) | 334 | 170 | 163 | 82.6 | 245 | 406 | 164 | 105 | 1150 | 157 | 581 | 1180 | 272 | 180 | 148 | 316 |
| CN(c1ncccc1CNc1nc(Nc2ccc3c(c2)CC(=O)N3)ncc1C(F)(F)F)S(C)(=O)=O + NC(=O)Nc1cc(-c2cccc(F)c2)sc1C(=O)N[C@H]1CCCNC1 [AZD7762] (first compound 0.08 µM, partner dose 0.02 µM) | 227 | 90.9 | 108 | 40.2 | 290 | 150 | 146 | 83 | 52.3 | 139 | 168 | 254 | 106 | 107 | 145 | 152 |
| Cn1cnc2c(F)c(Nc3ccc(Br)cc3Cl)c(C(=O)NOCCO)cc21 [selumetinib] + COc1cc2ncnc(Nc3ccc(Oc4ccccc4)cc3)c2cc1OC [SrcI1] (first compound 0.015 µM, partner dose 2 µM) | 220 | 115 | 67.3 | 104 | 128 | 181 | 238 | 70 | 30.2 | 50.8 | 61.4 | 90.9 | 99.2 | 202 | 100 | 104 |
| Cn1cnc2c(F)c(Nc3ccc(Br)cc3Cl)c(C(=O)NOCCO)cc21 [selumetinib] + c1cc(-c2cnn3cc(-c4ccc(OCCN5CCCCC5)cc4)cnc23)ccn1 [Dorsomorphin] (first compound 0.015 µM, partner dose 0.4 µM) | 251 | 59.7 | 46.2 | 155 | 177 | 43.2 | 365 | 188 | 118 | 147 | 66.8 | 78.4 | 103 | 114 | 101 | 146 |
| NC(=O)c1ccc(N(C(N)=O)c2c(F)cccc2F)nc1-c1ccc(F)cc1F + OCCn1cc(-c2cnc3nnn(Cc4ccc5ncccc5c4)c3n2)cn1 [PF04217903] (first compound 0.4 µM, partner dose 1 µM) | 88.3 | 101 | 226 | 30.1 | 58.7 | 152 | 58.1 | 63.4 | 109 | 178 | 65.4 | 96.1 | 86.5 | 68 | 103 | 458 |
| CCN(CC)CCNC(=O)c1c(C)[nH]c(/C=C2\C(=O)Nc3ccc(F)cc32)c1C [sunitinib] + COc1cc2ncnc(Nc3ccc(Oc4ccccc4)cc3)c2cc1OC [SrcI1] (first compound 0.4 µM, partner dose 2 µM) | 94.7 | 183 | 96.9 | 71.4 | 134 | 90.4 | 46.1 | 116 | 221 | 109 | 48.9 | 88 | 123 | 232 | 82.7 | 124 |
| COc1ccc(C2=N[C@@H](c3ccc(Cl)cc3)[C@@H](c3ccc(Cl)cc3)N2C(=O)N2CCNC(=O)C2)c(OC(C)C)c1 [Nutlin-3] + Cc1ccc(NC(=O)c2cccc(N(C)C)c2)cc1NC(=O)c1ccc(O)cc1 [ZM336372] (first compound 0.1 µM, partner dose 2 µM) | 66 | 49.6 | 70.3 | 148 | 181 | 62.6 | 61.2 | 69.7 | 112 | 196 | 144 | 140 | 99.8 | 148 | 104 | 238 |
| C[C@]1(O)C[C@@H](c2nc(-c3ccc4ccc(-c5ccccc5)nc4c3)c3c(N)nccn32)C1 + C=CCn1c(=O)c2cnc(Nc3ccc(N4CCN(C)CC4)cc3)nc2n1-c1cccc(C(C)(C)O)n1 [MK1775] (first compound 0.4 µM, partner dose 0.02 µM) | 155 | 78.7 | 178 | 89.9 | 76.9 | 55.7 | 105 | 79.8 | 40.2 | 180 | 156 | 53.1 | 199 | 80.3 | 108 | 97.4 |
| CCN(CC)CCNC(=O)c1c(C)[nH]c(/C=C2\C(=O)Nc3ccc(F)cc32)c1C [sunitinib] + O=C(O)c1ccc(-c2c[nH]c3ncc(-c4ccccc4)cc23)cc1C1CCCC1 [GSK650394] (first compound 0.4 µM, partner dose 0.16 µM) | 55.3 | 130 | 115 | 88.6 | 91.6 | 90.8 | 169 | 35 | 86.8 | 95.5 | 31.3 | 49.7 | 139 | 219 | 99.8 | 44.3 |
| Cn1sc(=O)n(Cc2ccccc2)c1=O + Cc1cc([N+](=O)[O-])ccc1NS(=O)(=O)c1cc(Cl)ccc1Cl [FH535] (first compound 0.4 µM, partner dose 1 µM) | 120 | 114 | 35.6 | 67.9 | 75.4 | 78.3 | 47.1 | 90.4 | 116 | 177 | 165 | 121 | 83.5 | 73.3 | 111 | 111 |
| CC(=O)O[C@@]12CO[C@@H]1C[C@H](O)[C@@]1(C)C(=O)[C@H](O)C3=C(C)[C@@H](OC(=O)[C@H](O)[C@@H](NC(=O)OC(C)(C)C)c4ccccc4)C[C@@](O)([C@@H](OC(=O)c4ccccc4)[C@H]21)C3(C)C [Docetaxel] + COC(=O)c1sccc1S(=O)(=O)Nc1ccc(Nc2ccccc2)cc1OC [GSK0660] (first compound 0.0001 µM, partner dose 1 µM) | 677 | 424 | 83.6 | 75.7 | 137 | 454 | 256 | 24 | 64.2 | 1420 | 190 | 197 | 143 | 223 | 114 | 331 |
| CC(=O)O[C@@]12CO[C@@H]1C[C@H](O)[C@@]1(C)C(=O)[C@H](O)C3=C(C)[C@@H](OC(=O)[C@H](O)[C@@H](NC(=O)OC(C)(C)C)c4ccccc4)C[C@@](O)([C@@H](OC(=O)c4ccccc4)[C@H]21)C3(C)C [Docetaxel] + Cn1cc(/C=C2\C(=O)Nc3cccnc32)c2ccccc21 [GW441756] (first compound 0.0001 µM, partner dose 0.4 µM) | 703 | 809 | 236 | 164 | 706 | 589 | 321 | 97.3 | 469 | 444 | 225 | 447 | 3490 | 195 | 134 | 273 |
| C[C@]1(O)C[C@@H](c2nc(-c3ccc4ccc(-c5ccccc5)nc4c3)c3c(N)nccn32)C1 + O=C(O)c1ccc(-c2c[nH]c3ncc(-c4ccccc4)cc23)cc1C1CCCC1 [GSK650394] (first compound 0.4 µM, partner dose 0.16 µM) | 293 | 72.8 | 43.4 | 79 | 53.2 | 210 | 67.4 | 224 | 146 | 120 | 94.3 | 93.8 | 99.5 | 65.9 | 83.7 | 79.1 |
| Cn1sc(=O)n(Cc2ccccc2)c1=O + COc1cc2c(Oc3ccc4[nH]c(C)cc4c3F)ncnc2cc1OCCCN1CCCC1 [cediranib] (first compound 0.4 µM, partner dose 0.4 µM) | 135 | 97.6 | 86.7 | 185 | 190 | 64.4 | 88.1 | 234 | 231 | 71.4 | 69.5 | 61.4 | 116 | 62.9 | 99.1 | 74.2 |
| C[C@@H](N)c1ccc(C(=O)Nc2ccnc3[nH]ccc23)cc1 + O=C1NC(=O)/C(=C/c2ccc(-c3ccc(F)cc3O)o2)S1 [AS252424] (first compound 0.4 µM, partner dose 1 µM) | 375 | 140 | 344 | 59.5 | 267 | 132 | 49.2 | 167 | 208 | 348 | 215 | 2190 | 105 | 78.1 | 470 | 69.1 |
| C[C@]1(O)C[C@@H](c2nc(-c3ccc4ccc(-c5ccccc5)nc4c3)c3c(N)nccn32)C1 + Oc1nc(-c2ccc(C(F)(F)F)cc2)nc2c1CSCC2 [XAV939] (first compound 0.4 µM, partner dose 2 µM) | 79.7 | 77 | 95.9 | 118 | 155 | 102 | 53.5 | 102 | 113 | 109 | 52.5 | 549 | 122 | 93.1 | 90.6 | 112 |

4 entries from above, as tab-separated lines.
SMILES	cleaved PARP positive nuclei fraction (MZ2-MEL) [%]	cleaved PARP positive nuclei fraction (MeWo) [%]	cleaved PARP positive nuclei fraction (RPMI7951) [%]	cleaved PARP positive nuclei fraction (RVH-421) [%]	cleaved PARP positive nuclei fraction (SkMel28) [%]	cleaved PARP positive nuclei fraction (SkMel2) [%]	cleaved PARP positive nuclei fraction (SkMel30) [%]	cleaved PARP positive nuclei fraction (SkMel5) [%]	cleaved PARP positive nuclei fraction (UACC257) [%]	cleaved PARP positive nuclei fraction (UACC62) [%]	cleaved PARP positive nuclei fraction (WM115) [%]	cleaved PARP positive nuclei fraction (WM1716) [%]	cleaved PARP positive nuclei fraction (WM1745) [%]	cleaved PARP positive nuclei fraction (WM3526) [%]	cleaved PARP positive nuclei fraction (WM3619) [%]	cleaved PARP positive nuclei fraction (WM451Lu) [%]
CC(=O)O[C@@]12CO[C@@H]1C[C@H](O)[C@@]1(C)C(=O)[C@H](O)C3=C(C)[C@@H](OC(=O)[C@H](O)[C@@H](NC(=O)OC(C)(C)C)c4ccccc4)C[C@@](O)([C@@H](OC(=O)c4ccccc4)[C@H]21)C3(C)C [Docetaxel] + COC(=O)c1sccc1S(=O)(=O)Nc1ccc(Nc2ccccc2)cc1OC [GSK0660] (first compound 0.0001 µM, partner dose 1 µM)	677	424	83.6	75.7	137	454	256	24	64.2	1420	190	197	143	223	114	331
CC(=O)O[C@@]12CO[C@@H]1C[C@H](O)[C@@]1(C)C(=O)[C@H](O)C3=C(C)[C@@H](OC(=O)[C@H](O)[C@@H](NC(=O)OC(C)(C)C)c4ccccc4)C[C@@](O)([C@@H](OC(=O)c4ccccc4)[C@H]21)C3(C)C [Docetaxel] + Cn1cc(/C=C2\C(=O)Nc3cccnc32)c2ccccc21 [GW441756] (first compound 0.0001 µM, partner dose 0.4 µM)	703	809	236	164	706	589	321	97.3	469	444	225	447	3490	195	134	273
C[C@]1(O)C[C@@H](c2nc(-c3ccc4ccc(-c5ccccc5)nc4c3)c3c(N)nccn32)C1 + O=C(O)c1ccc(-c2c[nH]c3ncc(-c4ccccc4)cc23)cc1C1CCCC1 [GSK650394] (first compound 0.4 µM, partner dose 0.16 µM)	293	72.8	43.4	79	53.2	210	67.4	224	146	120	94.3	93.8	99.5	65.9	83.7	79.1
Cn1sc(=O)n(Cc2ccccc2)c1=O + COc1cc2c(Oc3ccc4[nH]c(C)cc4c3F)ncnc2cc1OCCCN1CCCC1 [cediranib] (first compound 0.4 µM, partner dose 0.4 µM)	135	97.6	86.7	185	190	64.4	88.1	234	231	71.4	69.5	61.4	116	62.9	99.1	74.2
